Chains of the proteins cited; added tags and fusions are not shown. Lines headed by an entry give the natural chain unless they say otherwise; changes in a name come on top.
UniProt Q08745: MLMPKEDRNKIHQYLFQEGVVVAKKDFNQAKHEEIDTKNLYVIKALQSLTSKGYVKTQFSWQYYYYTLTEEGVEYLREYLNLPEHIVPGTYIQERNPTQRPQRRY

In paper PMC6588571:

Biological target: T1, C-terminally TAP-tagged Tsr1 (S. cerevisiae) (UniProt Q07381)
T1 sequence: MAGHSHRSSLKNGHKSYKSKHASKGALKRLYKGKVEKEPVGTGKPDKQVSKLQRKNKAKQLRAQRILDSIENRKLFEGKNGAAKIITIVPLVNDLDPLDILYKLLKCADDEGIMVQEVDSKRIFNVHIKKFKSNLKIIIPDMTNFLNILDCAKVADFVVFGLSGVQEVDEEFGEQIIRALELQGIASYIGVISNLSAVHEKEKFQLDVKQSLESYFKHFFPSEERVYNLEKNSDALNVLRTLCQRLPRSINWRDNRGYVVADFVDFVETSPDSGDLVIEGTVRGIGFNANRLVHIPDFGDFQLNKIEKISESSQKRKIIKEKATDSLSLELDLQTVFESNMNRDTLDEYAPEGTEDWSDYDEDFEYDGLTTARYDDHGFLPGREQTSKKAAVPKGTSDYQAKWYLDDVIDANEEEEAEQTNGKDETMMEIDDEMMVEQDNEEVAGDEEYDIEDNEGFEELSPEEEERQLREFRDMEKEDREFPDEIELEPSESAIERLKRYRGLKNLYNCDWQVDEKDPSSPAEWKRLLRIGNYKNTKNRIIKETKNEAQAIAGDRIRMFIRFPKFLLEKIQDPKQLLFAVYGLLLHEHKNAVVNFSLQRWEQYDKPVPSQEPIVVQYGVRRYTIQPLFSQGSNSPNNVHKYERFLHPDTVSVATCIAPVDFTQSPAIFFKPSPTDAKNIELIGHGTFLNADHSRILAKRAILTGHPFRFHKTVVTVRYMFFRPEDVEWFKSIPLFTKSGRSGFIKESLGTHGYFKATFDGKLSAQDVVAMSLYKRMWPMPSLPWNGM
Assay: cryo-EM structure; pre-40S particles from rps20Δloop cells purified via Tsr1-TAP (lysis buffer with 5 mM MgCl2) and a 10–30% sucrose gradient; single particle analysis, classes C1-S20Δloop (3.47 Å) and C2-S20Δloop (3.79 Å); the partners stand in one ribonucleoprotein particle

binding: binds
Substance: Rps10 (endogenous) (from UniProt Q08745)

No constants are given. Whether binding was seen depends on the method and setting. Binding can be weak; no strength is given. Tags and fused reporters may be left off the sequences shown.
